The values that follow come from article PMC12098869 (Nature Communications, 2025).

For some assays here: Plain letter strings leave the end groups untold. Where a SMILES comes first, the peptide text is derived from it. Bridges are numbered along the chain shown (N, C = ends).

The test system of one data set is biotinylated ADO. Kind of data set: RaPID mRNA display selection, enrichment by next-generation sequencing. Details: species or system human. As to conditions: percentage enrichment in the final (sixth) selection round.
Data set [1] is described as follows: general procedure: Fmoc solid-phase peptide synthesis. As to conditions: whole synthesis; for isolated yield: scale of the general procedure 50 µmol.
The nature of another data set: peptide synthesis. As to conditions: whole synthesis, thioether ring, sequence written open.
[2] abbreviates: thioether ring, sequence written open.

On to `CC[C@H](C)[C@@H]1NC(=O)[C@H](CCCNC(=N)N)NC(=O)[C@H](Cc2ccc(O)cc2)NC(=O)CSC[C@@H](C(=O)N2CCC[C@H]2C(=O)N[C@@H](CS)C(N)=O)NC(=O)[C@H](CC(C)C)NC(=O)[C@H](C(C)C)NC(=O)[C@H](Cc2c[nH]c3ccccc23)NC(=O)[C@H](CO)NC(=O)[C@H](CCCNC(=N)N)NC(=O)[C@H](Cc2ccccc2)NC(=O)[C@H](C(C)C)NC(=O)[C@H](CCCNC(=N)N)NC(=O)[C@H]([C@@H](C)CC)NC1=O` [CP2] ({CH2CO}-YRIIRVFRSWVLCPC-NH2; thioether N-13; N-terminus and C-terminus assumed), for which, in the data set with biotinylated ADO, the “Enrichment (%)” value turned out to be 4.3%.

For `CC(C)C[C@@H]1NC(=O)[C@H](CCCNC(=N)N)NC(=O)CNC(=O)[C@H](CCCNC(=N)N)NC(=O)[C@H](CCCNC(=N)N)NC(=O)[C@@H]2CCCN2C(=O)[C@H](Cc2ccccc2)NC(=O)CNC(=O)[C@H](CCC(=O)O)NC(=O)[C@H](CC(N)=O)NC(=O)[C@H](CC(C)C)NC(=O)[C@H]([C@@H](C)O)NC(=O)[C@H](Cc2c[nH]c3ccccc23)NC(=O)[C@H](Cc2ccc(O)cc2)NC(=O)CSC[C@@H](C(N)=O)NC1=O` [CP3] ({CH2CO}-YWTLNEGFPRRGRLC-NH2; thioether N-15; N-terminus and C-terminus assumed), in the data set on biotinylated ADO, the “Enrichment (%)” value was found to be 2.6%.

In the case of CP6-L8d-Gly-Ser, in data set [1] (setting [2]), the isolated yield was 4.3% and the isolated mass turned out to be 5.0 mg.

In data set [1], CP6-L8d-Lys-Ser came in with an isolated mass of 9.0 mg and an isolated yield of 7.1%.

In data set [1] (setting [2]), CP6-L8d-Phe-Ser yielded an isolated yield of 6.7% and an isolated mass of 8.2 mg.

As for YRIIRVFRSWVLCPC, the isolated yield in “peptide synthesis” is given as 0.5%.

Molecule YTVSTTWLGTHRQC showed an isolated yield in the data set “peptide synthesis” of 13%.

The molecule YWTLNEGFPRRGRLC displayed an isolated yield in “peptide synthesis” of 12%.
